# Measurements published in publication PMC5155146, “Thioredoxin-interacting protein regulates haematopoietic stem cell ageing and rejuvenation by inhibiting p38 kinase activity” (Nature Communications, 2016).
# Amino acid sequences for entries named in this document (tags omitted). A change or cut given only in a name is not applied to a line headed by its entry. Chains listed by the source or under a name are the forms on record and can include a tag or linker.
# UniProt Q16539: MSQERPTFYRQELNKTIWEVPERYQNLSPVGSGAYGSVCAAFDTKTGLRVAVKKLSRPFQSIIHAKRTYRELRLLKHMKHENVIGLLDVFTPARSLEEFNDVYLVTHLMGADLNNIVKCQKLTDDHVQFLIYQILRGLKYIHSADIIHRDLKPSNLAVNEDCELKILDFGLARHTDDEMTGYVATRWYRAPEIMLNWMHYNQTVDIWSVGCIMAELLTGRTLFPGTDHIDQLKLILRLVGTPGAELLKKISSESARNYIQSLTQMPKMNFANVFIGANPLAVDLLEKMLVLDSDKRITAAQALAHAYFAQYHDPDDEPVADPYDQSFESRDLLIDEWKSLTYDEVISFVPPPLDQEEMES
# p38AF, kinase-dead dominant-negative mutant of p38alpha (Q16539, form named): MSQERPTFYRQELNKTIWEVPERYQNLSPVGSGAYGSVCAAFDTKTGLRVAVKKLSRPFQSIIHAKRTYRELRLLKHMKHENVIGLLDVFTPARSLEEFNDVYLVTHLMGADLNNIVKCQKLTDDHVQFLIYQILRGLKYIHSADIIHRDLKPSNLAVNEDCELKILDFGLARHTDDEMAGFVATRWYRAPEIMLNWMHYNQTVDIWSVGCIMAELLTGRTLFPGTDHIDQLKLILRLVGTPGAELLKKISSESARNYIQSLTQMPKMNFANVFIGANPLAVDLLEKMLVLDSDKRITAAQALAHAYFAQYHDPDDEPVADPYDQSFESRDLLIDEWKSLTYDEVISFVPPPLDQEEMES
# These are yes or no findings as the source states them, for the method shown. In cells and extracts the contact can be indirect. Some results given as binding are weak or reduced against the parent protein; the word gives no strength.
# Molecular target: T1, human TXNIP overexpressed in 293T cells (human) (UniProt Q9H3M7)
# T1 sequence: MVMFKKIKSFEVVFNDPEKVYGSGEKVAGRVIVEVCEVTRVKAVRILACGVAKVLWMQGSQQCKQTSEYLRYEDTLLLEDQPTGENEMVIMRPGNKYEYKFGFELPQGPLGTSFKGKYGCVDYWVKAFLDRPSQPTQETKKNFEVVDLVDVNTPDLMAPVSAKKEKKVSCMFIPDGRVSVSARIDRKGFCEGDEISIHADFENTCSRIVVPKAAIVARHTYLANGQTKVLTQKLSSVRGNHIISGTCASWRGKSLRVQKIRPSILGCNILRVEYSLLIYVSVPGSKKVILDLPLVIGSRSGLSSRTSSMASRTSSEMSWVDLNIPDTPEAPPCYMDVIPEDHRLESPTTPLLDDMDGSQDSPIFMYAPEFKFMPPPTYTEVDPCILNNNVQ
# Assay: pull-down; GST pull-down from 293T cells overexpressing TXNIP and p38 (wild type or mutants); also with H2O2 or SB203580 treatment
row,Substance,binding
1,human p38alpha overexpressed in 293T cells (from UniProt Q16539 1-360) (enzyme),binds
2,p38(D313A/D315A/D316A) (from UniProt Q16539 1-360) (enzyme),binds
3,p38(E160A/D161A) (from UniProt Q16539 1-360) (enzyme),binds
4,p38(I116A) (from UniProt Q16539 1-360) (enzyme),binds
5,"p38AF, kinase-dead dominant-negative mutant of p38alpha (from UniProt Q16539 1-360) (enzyme)",binds
